The nature of this assay: qHTS Assay for Lipid Storage Modulators in Drosophila S3 Cells.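 For cell number change: cells counted by Cell Tracker Red CMTPX staining in the red channel.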 The settings on record: BODIPY lipid droplet fluorescence, 18-24 h; for cell number change: measured here: cell count max response, cells fed with added oleic acid. In outline:
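Drosophila S3 cells loaded with oleic acid (400 uM, as added) and compounds at several concentrations; lipid droplets imaged by 488-nm laser-scanning cytometry, 500–530 nm intensity and object ratio to cell channel. Percent activity normalized to 20 uM Triacsin C.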

The mark [1] stands for this setting: measured here: lipid fluorescence (Fed channel) AC50, cells fed with added oleic acid.
[2] abbreviates: measured here: cell number channel AC50, cells fed with added oleic acid.

The other results are listed elsewhere or left out. The main result of the screen is listed elsewhere. These columns were measured beside it and carry no call. The list favours compounds with an active or inconclusive main result. Words in brackets tell the shape of the fitted curve; partial curves, single points and poor fits give uncertain potencies.

As usually defined, the AC50 is the concentration at which the activity in the assay is half-maximal.

Consider `COC(=O)C1=C(c2ccc(OC)c(OC)c2)C[C@@H]2CC[C@H]1N2C(=O)N1CCC(C)CC1`, for which the cell number change is -14.7%. The AC50 under setting [1] is 25.9 µM [falling, single point]. Consider `O=S1(=O)CCN(CCc2c[nH]c3ccccc23)CC1`, for which the cell number change was 7.27%. In addition, the AC50 under setting [1] is 3.26 µM [rising, single point]. With `CCCCn1c(NS(=O)(=O)c2ccccc2)c(C(=O)OCC)c2nc3ccccc3nc21`, the cell number change is -11%. Further, the AC50 under setting [1] was 4.61 µM [falling, single point]. With `COc1cc2c(cc1OC)CN(c1ccc([N+](=O)[O-])c(C(F)(F)F)c1)CC2`, the cell number change was -22.3%. As to `CCOc1cc(CNCCc2c[nH]c3ccccc23)cc(Cl)c1OCC`, the cell number change was -78.9%. For the same compound, the AC50 under setting [2] is 8.2 µM [falling, partial curve]. Also, the AC50 under setting [1] is 29.1 µM [falling, single point]. Regarding `CC(=NCc1ccco1)c1c(O)n(Cc2ccccc2)c(=O)[nH]c1=O`, the cell number change is 23%. Further, the AC50 under setting [2] was 3.66 µM [rising, full curve, poor fit]. In addition, under setting [1], the AC50 was 20.6 µM [rising, single point]. For the compound `CCOC(=O)C(O)(c1ccc(N=c2ccccn2C)cc1)C(F)(F)F` (stereo not drawn), the cell number change was 10.9%. For the same compound, the AC50 under setting [1] is 5.8 µM [rising, full curve]. For the compound `CCN1C(=O)c2ccccc2Sc2ccc(C(=O)N3CCC4(CC3)OCCO4)cc21`, the cell number change was -20.6%. Further, the AC50 under setting [2] is 0.164 µM [falling, full curve, poor fit]. As to `COc1ccc(CC2C(=O)N(c3ccccc3)C(=O)N(c3ccccc3)C2=O)c(OC)c1`, the cell number change is -18.4%. Moreover, the AC50 under setting [2] is 6.51 µM [falling, single point]. On to `CCOP(=O)(OCC)c1nc(-c2ccc(Cl)cc2)oc1NCc1ccccc1`, for which, under setting [2], the AC50 is 1.16 µM [falling, partial curve, poor fit].

Consider `CCOc1cc2c(cc1OCC)-n1cccc1C(c1ccccc1OC)NC2` (stereo not drawn), for which the cell number change was 4.23%. For the same compound, under setting [1], the AC50 was 29.1 µM [rising, single point]. For the compound `CCOC(=O)CC(NC(=O)C(Cc1ccc(N(CCCl)CCCl)cc1)NC(C)=O)C(=O)OCC` (stereo not drawn), the cell number change is -18.8%. Moreover, the AC50 under setting [1] is 29.1 µM [falling, single point].

`CCN(CC)CCOC(=O)C(O)(c1ccccc1)c1ccccc1`: the cell number change was determined as 1.75%. Besides, the AC50 under setting [1] is 16.4 µM [rising, single point].

On to `COc1ccc(OC)c(C(O)C2CCCCN2)c1` (stereo not drawn), for which the cell number change is 1.47%. Further, the AC50 under setting [1] is 3.26 µM [rising, single point]. With `Cn1cccc1/C=C1/C(=O)NC(=S)N(Cc2ccc(F)cc2)C1=O`, the cell number change turned out to be 50.1%. Besides, under setting [2], the AC50 was 25.9 µM [rising, single point]. On to `COc1ccc(CC2C(=O)NC(=O)NC2=O)c(OC)c1`, for which the cell number change came to 0.437%. `CN(C)CCCN=Cc1c(O)n(CCc2ccccc2)c(=O)[nH]c1=O`: the cell number change was 8.36%. Further, the AC50 under setting [1] was 0.0231 µM [falling, full curve, poor fit].

Values taken from PubChem BioAssay AID2685 (National Center for Advancing Translational Sciences (NCATS), 2010).
